Measurements from PubChem BioAssay (EPA / NIEHS).
Several values for one entry are separate records, joined by “and”; a condition that tells them apart may be missing. Equal values may be shown once. Inconclusive results, whose numbers are uncertain, are shown with a selection of clear calls. Potencies beside an inconclusive call are fits to weak or partial responses and may not hold up. Activity calls are given as the source filed them. Rule for the calls: active = hit-call score of the fitted dose curve at least 0.9, where 1 is the maximum; inconclusive = response in the unintended direction; inactive = score below 0.9.

test system: frog Androgen Receptor (AR), gene 399456; test: ATG_frAR_XSP1: Attagene TRANS-FACTORIAL Multi-Species (XSP1) HepG2 Assay for frog Androgen Receptor (AR) (AID 2283770)

Row | Structure (SMILES) | AC50
1 | CC1(C)CCC(Cc2ccc(Cl)cc2)C1(O)Cn1cncn1 (stereo not given) | inconclusive: 7.95 µM
2 | CC(C)(C)c1cc(O)ccc1O | inconclusive: 55.2 µM
3 | Oc1ccc(C(c2ccc(O)cc2)(C(F)(F)F)C(F)(F)F)cc1 | inconclusive: 11.8 µM and inconclusive: 1.79 µM
4 | COP(=S)(OC)Oc1nc(Cl)c(Cl)cc1Cl | active: 5.58 µM
5 | CCCN(CCC)c1c([N+](=O)[O-])cc(S(N)(=O)=O)cc1[N+](=O)[O-] | inconclusive: 9.03 µM
6 | Clc1ccc(C(c2ccccc2Cl)C(Cl)(Cl)Cl)cc1 (stereo not given) | inconclusive: 10 µM
7 | CC(C)Oc1cc(-n2nc(C(C)(C)C)oc2=O)c(Cl)cc1Cl | inconclusive: 100 µM
8 | C[C@]12CCC(=O)C=C1CC[C@@H]1[C@@H]2CC[C@@]2(C)[C@H]1CC[C@]2(C)O | active: 0.0038 µM
9 | Cc1c(COC(=O)[C@@H]2[C@H](/C=C(\Cl)C(F)(F)F)C2(C)C)cccc1-c1ccccc1 | inconclusive: 52.6 µM
10 | C[C@]12CCC(=O)C=C1CC[C@@H]1[C@@H]2CC[C@]2(C)C(=O)CC[C@@H]12 | inconclusive: 167 nM and inconclusive: 49.1 nM
11 | CC1(C)CCC(=Cc2ccc(Cl)cc2)C1(O)Cn1cncn1 (stereo not given) | inconclusive: 10.3 µM
12 | Oc1cc(Cl)ccc1Oc1ccc(Cl)cc1Cl | inconclusive: 3.9 µM
13 | CC12CC1(C)C(=O)N(c1cc(Cl)cc(Cl)c1)C2=O (stereo not given) | inconclusive: 31.1 µM
14 | COc1ccc(C(c2ccc(OC)cc2)C(Cl)(Cl)Cl)cc1 | inconclusive: 11.5 µM
15 | CC(C)(C)c1ccc(CSc2cnn(C(C)(C)C)c(=O)c2Cl)cc1 | inconclusive: 100 µM

2 entries from above, reformatted.
Row	Structure (SMILES)	AC50
7	CC(C)Oc1cc(-n2nc(C(C)(C)C)oc2=O)c(Cl)cc1Cl	inconclusive: 100 µM
8	C[C@]12CCC(=O)C=C1CC[C@@H]1[C@@H]2CC[C@@]2(C)[C@H]1CC[C@]2(C)O	active: 0.0038 µM
